From the supplement of paper PMC12889115 come the findings set out here.

The test concerns Salmonella enterica serovar Typhimurium SL1344. Put plainly: bacterial growth OD600 after 18 h with compound and polymyxin B; higher = more bacterial growth (less inhibition). The note with it: 50 µM, Mueller-Hinton broth.

This is one part of the list. Values are raw readings; no control value is given beside them.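 First-pass screen: polymyxin B was added at a level that permeabilizes the Salmonella outer membrane while sparing the inner membrane. DMSO wells, with and without polymyxin B, defined maximum growth. Because plates differed from one another, each plate's data were ranked separately and the compounds with the lowest OD600 were carried forward as hits.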

Turning to `COc1ccc(OCc2cc(C(=O)NCc3c(C)n[nH]c3C)n[nH]2)c(Cl)c1`, the “bacterial growth OD600” value (polymyxin B 1 µg/mL) is 1.05. Regarding `CCOC(=O)C1(Cc2ccc(Cl)cc2)CCN(C(=O)C2CC23CCCC3)CC1` (configuration not stated), for the setting “polymyxin B 1 µg/mL”, the “bacterial growth OD600” value turned out to be 0.014.

On to `CCN1CCN(C2(C(=O)NCCCOC(C)C)Cc3ccccc3C2)CC1`, for which the “bacterial growth OD600” value (polymyxin B 0.75 µg/mL) came to 0.967. On the same count and under the same terms, the same measure for `CC(C)(C)CN1CCOc2ccc(C(C)(O)COc3ccccc3)cc2C1` (configuration not stated): 0.074; for `CCc1csc(CNC(=O)c2ccc(N(C)Cc3cnn(C)c3)nc2)n1`: 0.789. `COc1ccc(/C=C/CN2CCCC(CO)(Cc3cccc(Cl)c3)C2)cc1` (configuration not stated): the “bacterial growth OD600” value (polymyxin B 1 µg/mL) was 0.682. `O=C(CCc1nnc(CCCc2ccccc2)o1)N1CCN(c2ccncc2)CC1`: the “bacterial growth OD600” value (polymyxin B 1 µg/mL) worked out at 0.903. Take `COc1cccc(-c2nc(CN(CCO)CC34CC5CC(CC(C5)C3)C4)c(C)o2)c1OC`: the “bacterial growth OD600” value (polymyxin B 0.75 µg/mL) turned out to be 0.611. On the same count and under the same terms, under `Cc1cc(C)n(CC(=O)NCc2cccnc2Oc2ccccc2F)n1` stands 0.848; under `O=C1CCC(CCC(=O)NC2(c3ccccc3)CC2)(Cc2ccc(F)cc2)N1` (configuration not stated), 0.829; under `O=C(CCc1cccnc1)N1CCc2onc(-c3ccc(F)c(F)c3)c2C1`, 0.83. Turning to `COc1ccc(CC2(CCC(=O)N(C)CC(C)C)CCC(=O)N2)c2ccccc12` (configuration not stated), the “bacterial growth OD600” value (polymyxin B 0.75 µg/mL) was 0.745. For `COCCN(C)Cc1nc(Cc2ccccc2Cl)no1`, the “bacterial growth OD600” value (polymyxin B 1 µg/mL) turned out to be 0.859. The same measure, in the same setting: under `COc1cccc(-c2cc(CC3(O)CCN(CC4CC=CCC4)CC3)on2)c1` (configuration not stated) stands 0.85. As for `Cc1c(C(=O)NC(CCn2cncn2)c2ccccc2)oc2c(F)cccc12` (configuration not stated), for the setting “polymyxin B 0.75 µg/mL”, the “bacterial growth OD600” value came out at 0.794. In the case of `COC(=O)c1ccccc1C(=O)N1CCC(C(Cc2ccccc2)N(C)C(=O)c2ccoc2C)CC1` (configuration not stated), under “polymyxin B 0.75 µg/mL”, the “bacterial growth OD600” value stood at 1.01. In the case of `COc1cccc(CN(C)Cc2nc(Cc3ccccc3Cl)no2)c1`, the “bacterial growth OD600” value (polymyxin B 1 µg/mL) came to 0.619. Take `COc1ccc(O)c(CN2CCCC(c3[nH]ncc3-c3ccc(Cl)cc3)C2)c1` (configuration not stated): the “bacterial growth OD600” value (polymyxin B 0.75 µg/mL) stood at 0.398. For `COCCOC1CCN(c2nc3nonc3nc2NC2CCCC2)CC1`, the “bacterial growth OD600” value (polymyxin B 1 µg/mL) turned out to be 0.761.

For `COCCCC1CCN(Cc2nc(-c3cccc(Cl)c3)no2)CC1`, the “bacterial growth OD600” value (polymyxin B 1 µg/mL) is 1.02. With `O=C1CCC(CCC(=O)N2CCCCC2)(Cc2ccc3ccccc3c2)N1` (configuration not stated), the “bacterial growth OD600” value (polymyxin B 0.75 µg/mL) worked out at 1.01. Regarding `Cc1ccccc1CNC(=O)c1ccc(OC2CCN(S(C)(=O)=O)CC2)c(Cl)c1`, the “bacterial growth OD600” value (polymyxin B 1 µg/mL) came to 1.2. Consider `O=C(CCc1ccc2c(c1)OCO2)NC1CCCN(c2ccc(C(F)(F)F)cn2)C1` (configuration not stated), for which the “bacterial growth OD600” value (polymyxin B 1 µg/mL) stood at 0.87. Still for that read-out and setting: the same measure for `CCOC(=O)C1(Cc2ccc(Cl)cc2)CCN(CCCn2cccn2)CC1`: 0.65. Consider `Cc1ccccc1CC(C1CCN(C(=O)C(=O)CC(C)C)CC1)N(C)C(=O)Cn1cccn1` (configuration not stated), for which, where the note is “polymyxin B 0.75 µg/mL”, the “bacterial growth OD600” value came out at 0.832. For `COc1ccccc1OC1CCN(Cc2nc(-c3cccc(Cl)c3)no2)CC1`, the “bacterial growth OD600” value (polymyxin B 1 µg/mL) was 0.554. With `CCO[C@H]1[C@H](NC(=O)c2cccnc2)c2ccccc2C12CCN(C(=O)C1=CCCC1)CC2`, the “bacterial growth OD600” value (polymyxin B 0.75 µg/mL) was 0.758. On to `COc1cccc(-n2cc(CNC(=O)c3cn(C4CC4)cc(C(=O)NC4CCCCC4)c3=O)cn2)c1`, for which, under “polymyxin B 0.75 µg/mL”, the “bacterial growth OD600” value was determined as 0.012. On to `Cc1ccc(Oc2ncccc2CNC(=O)Cc2ccncc2)c(F)c1F`, for which the “bacterial growth OD600” value (polymyxin B 1 µg/mL) amounted to 0.905. Still for that read-out and setting: under `OC1CCCN(c2ccc(-c3nc(COc4ccccc4)no3)cn2)C1` (configuration not stated) stands 0.771. The same measure, in the same setting: the same measure for `O=C(C1CCCCCC1)N1CCC2(CCCN(CC3CC3)C2=O)C1` (configuration not stated): 1.11; for `CC(C)N1CCN(CC2(O)CCCN(Cc3cccc(F)c3F)C2=O)CC1` (configuration not stated): 1.01.
